# Data as given in PubChem BioAssay AID1259308 (NCATS, 2017)
# Screen: 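Knock-downs that increase output of a recombinant reporter protein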 (primary screen)
# System: human HEK293 embryonic kidney cells stably expressing firefly luciferase (HEK-CMV-Luc2-Hygro)
# Knock-down reagent: single siRNA against human genes, 0.8 pmol siRNA per well
# Duration: 72 h
# Measured: 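Reporter luminescence and viable-cell signal on separate replicate plates, given as percent of non-targeting control and median/MAD z-scores, plus per-cell luciferase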
# Reading the numbers: total luciferase, z-score and total luciferase, % of control: higher = more reporter protein produced; luciferase per cell, z-score: higher = more reporter output per viable cell
# Active means: 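An siRNA counts as active if its total luciferase robust z-score exceeds 3; genes with two or more such siRNAs out of three were retested with fresh siRNAs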
# Meaning of the calls: active = raised luciferase; inactive = no rise
# The deposit covers about 59,000 reagents; this is a random part of them. About 1,510 of them (2.6%) were called active. 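Calls use total luciferase alone and ignore viability, so some active siRNAs may act by altering cell number.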 The numbers tell different reagents against one gene apart. Not all columns of the deposit are shown. No sequences are given here.
target gene,siRNA no.,"total luciferase, z-score","total luciferase, % of control","luciferase per cell, z-score",call
ZNF597 (zinc finger protein 597),1,-0.6,70,-0.38,inactive
ZNF597 (zinc finger protein 597),2,-0.733,67.3,-0.931,inactive
ZNF597 (zinc finger protein 597),3,0.0335,82.6,-0.0562,inactive
SNX12 (sorting nexin 12),1,-1.88,44.5,-2.2,inactive
SNX12 (sorting nexin 12),2,0.367,89.2,-0.34,inactive
SNX12 (sorting nexin 12),3,-1.41,53.9,-1.33,inactive
LINC00207 (long independently transcribed non-coding RNA 207),1,0.151,84.9,-0.0243,inactive
LINC00207 (long independently transcribed non-coding RNA 207),2,-0.21,77.7,-0.449,inactive
LINC00207 (long independently transcribed non-coding RNA 207),3,-1.9,44.1,-1.61,inactive
SPIN4 (spindlin family member 4),1,0.668,95.2,0.349,inactive
SPIN4 (spindlin family member 4),2,1.67,115,0.701,inactive
SPIN4 (spindlin family member 4),3,1.5,112,0.719,inactive
TMEM61 (transmembrane protein 61),1,2.23,126,2.18,inactive
TMEM61 (transmembrane protein 61),2,1.97,121,2.06,inactive
TMEM61 (transmembrane protein 61),3,-0.118,79.5,0.434,inactive

In a second layout: results already given
{"target gene":"ZNF597 (zinc finger protein 597)","siRNA no.":2,"total luciferase, z-score":-0.733,"total luciferase, % of control":67.3,"luciferase per cell, z-score":-0.931,"call":"inactive"}
{"target gene":"ZNF597 (zinc finger protein 597)","siRNA no.":3,"total luciferase, z-score":0.0335,"total luciferase, % of control":82.6,"luciferase per cell, z-score":-0.0562,"call":"inactive"}
{"target gene":"SNX12 (sorting nexin 12)","siRNA no.":1,"total luciferase, z-score":-1.88,"total luciferase, % of control":44.5,"luciferase per cell, z-score":-2.2,"call":"inactive"}
{"target gene":"SNX12 (sorting nexin 12)","siRNA no.":2,"total luciferase, z-score":0.367,"total luciferase, % of control":89.2,"luciferase per cell, z-score":-0.34,"call":"inactive"}
{"target gene":"SNX12 (sorting nexin 12)","siRNA no.":3,"total luciferase, z-score":-1.41,"total luciferase, % of control":53.9,"luciferase per cell, z-score":-1.33,"call":"inactive"}

Continued.
target gene,siRNA no.,"total luciferase, z-score","total luciferase, % of control","luciferase per cell, z-score",call
EEF1A1P47,1,-0.449,73,-0.25,inactive
EEF1A1P47,2,0.107,84,0.491,inactive
EEF1A1P47,3,0.12,84.3,0.818,inactive
AMER1 (APC membrane recruitment protein 1),1,0.587,93.6,0.788,inactive
AMER1 (APC membrane recruitment protein 1),2,-0.853,64.9,-0.758,inactive
AMER1 (APC membrane recruitment protein 1),3,0.892,99.6,0.941,inactive
POLR3D (RNA polymerase III subunit D),1,0.685,95.5,0.401,inactive
POLR3D (RNA polymerase III subunit D),2,-1.36,54.9,-1.32,inactive
POLR3D (RNA polymerase III subunit D),3,0.0768,83.4,0.343,inactive
"LMAN2 (lectin, mannose binding 2)",1,-0.323,75.5,-0.424,inactive
"LMAN2 (lectin, mannose binding 2)",2,0.502,91.9,0.569,inactive
"LMAN2 (lectin, mannose binding 2)",3,-0.716,67.6,-0.59,inactive
HTR3A (5-hydroxytryptamine receptor 3A),1,-1.1,60,-1.52,inactive
HTR3A (5-hydroxytryptamine receptor 3A),2,-0.284,76.2,-0.655,inactive
HTR3A (5-hydroxytryptamine receptor 3A),3,0.019,82.3,-0.521,inactive
LRRC27 (leucine rich repeat containing 27),1,2.33,128,1.45,inactive
LRRC27 (leucine rich repeat containing 27),2,-0.328,75.4,-0.626,inactive
LRRC27 (leucine rich repeat containing 27),3,-0.785,66.3,-1.54,inactive
OR14J1 (olfactory receptor family 14 subfamily J member 1),1,0.0585,83,-0.0317,inactive
OR14J1 (olfactory receptor family 14 subfamily J member 1),2,-0.954,62.9,-0.6,inactive
OR14J1 (olfactory receptor family 14 subfamily J member 1),3,-0.542,71.1,-0.699,inactive
LOC649201 (retired record),1,1.36,109,0.825,inactive
LOC649201 (retired record),2,-0.172,78.5,0.137,inactive
LOC649201 (retired record),3,0.978,101,1.98,inactive
